We go through seven molecules from paper PMC11189303.

Amino acid sequences for entries named in this document (tags omitted).
UniProt Q9Y6G5: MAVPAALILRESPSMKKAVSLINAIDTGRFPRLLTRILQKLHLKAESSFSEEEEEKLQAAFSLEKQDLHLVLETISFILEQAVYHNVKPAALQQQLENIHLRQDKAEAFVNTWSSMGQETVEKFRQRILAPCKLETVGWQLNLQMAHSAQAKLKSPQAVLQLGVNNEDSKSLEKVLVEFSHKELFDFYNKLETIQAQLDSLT
UniProt Q8N668: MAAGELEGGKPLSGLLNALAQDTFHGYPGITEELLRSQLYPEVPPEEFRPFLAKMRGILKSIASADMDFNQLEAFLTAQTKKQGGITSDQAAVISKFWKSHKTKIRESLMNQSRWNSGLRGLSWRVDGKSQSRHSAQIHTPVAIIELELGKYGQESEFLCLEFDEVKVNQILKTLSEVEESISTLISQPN
UniProt Q8TCE6: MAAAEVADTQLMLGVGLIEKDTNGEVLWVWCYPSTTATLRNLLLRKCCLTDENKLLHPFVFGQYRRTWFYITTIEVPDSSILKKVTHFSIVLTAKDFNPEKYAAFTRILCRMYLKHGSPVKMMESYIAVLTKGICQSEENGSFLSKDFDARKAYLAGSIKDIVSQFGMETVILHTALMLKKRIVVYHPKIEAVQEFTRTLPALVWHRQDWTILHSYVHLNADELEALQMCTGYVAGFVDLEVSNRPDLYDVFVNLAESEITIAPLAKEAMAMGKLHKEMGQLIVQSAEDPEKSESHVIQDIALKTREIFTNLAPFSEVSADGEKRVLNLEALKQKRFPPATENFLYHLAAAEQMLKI
UniProt Q86X83: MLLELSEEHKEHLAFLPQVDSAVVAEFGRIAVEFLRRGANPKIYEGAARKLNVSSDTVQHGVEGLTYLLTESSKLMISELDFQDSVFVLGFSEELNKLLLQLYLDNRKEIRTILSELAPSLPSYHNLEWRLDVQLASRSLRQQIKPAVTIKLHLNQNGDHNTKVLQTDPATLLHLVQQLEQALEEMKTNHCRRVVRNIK
UniProt Q9NX08: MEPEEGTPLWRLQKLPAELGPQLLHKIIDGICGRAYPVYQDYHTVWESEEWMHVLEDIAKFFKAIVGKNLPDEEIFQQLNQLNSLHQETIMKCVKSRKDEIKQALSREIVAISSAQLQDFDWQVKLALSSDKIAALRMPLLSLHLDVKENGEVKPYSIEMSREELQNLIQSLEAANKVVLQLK
UniProt O60826: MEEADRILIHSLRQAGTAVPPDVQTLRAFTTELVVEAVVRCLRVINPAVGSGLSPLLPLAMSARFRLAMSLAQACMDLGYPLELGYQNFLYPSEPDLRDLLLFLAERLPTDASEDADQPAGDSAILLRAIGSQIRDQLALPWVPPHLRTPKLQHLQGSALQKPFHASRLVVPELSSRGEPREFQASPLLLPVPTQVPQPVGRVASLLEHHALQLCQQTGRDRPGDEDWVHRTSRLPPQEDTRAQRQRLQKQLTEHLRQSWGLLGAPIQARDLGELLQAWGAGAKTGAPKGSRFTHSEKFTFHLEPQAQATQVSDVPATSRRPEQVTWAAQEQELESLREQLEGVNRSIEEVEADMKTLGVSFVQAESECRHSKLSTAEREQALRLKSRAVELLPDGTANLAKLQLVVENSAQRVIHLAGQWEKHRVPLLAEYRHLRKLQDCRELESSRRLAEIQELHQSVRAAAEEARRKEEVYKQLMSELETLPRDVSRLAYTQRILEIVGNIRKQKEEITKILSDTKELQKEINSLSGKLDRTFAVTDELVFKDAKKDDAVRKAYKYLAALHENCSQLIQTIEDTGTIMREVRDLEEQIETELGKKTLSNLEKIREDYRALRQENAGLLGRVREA
UniProt Q567U6: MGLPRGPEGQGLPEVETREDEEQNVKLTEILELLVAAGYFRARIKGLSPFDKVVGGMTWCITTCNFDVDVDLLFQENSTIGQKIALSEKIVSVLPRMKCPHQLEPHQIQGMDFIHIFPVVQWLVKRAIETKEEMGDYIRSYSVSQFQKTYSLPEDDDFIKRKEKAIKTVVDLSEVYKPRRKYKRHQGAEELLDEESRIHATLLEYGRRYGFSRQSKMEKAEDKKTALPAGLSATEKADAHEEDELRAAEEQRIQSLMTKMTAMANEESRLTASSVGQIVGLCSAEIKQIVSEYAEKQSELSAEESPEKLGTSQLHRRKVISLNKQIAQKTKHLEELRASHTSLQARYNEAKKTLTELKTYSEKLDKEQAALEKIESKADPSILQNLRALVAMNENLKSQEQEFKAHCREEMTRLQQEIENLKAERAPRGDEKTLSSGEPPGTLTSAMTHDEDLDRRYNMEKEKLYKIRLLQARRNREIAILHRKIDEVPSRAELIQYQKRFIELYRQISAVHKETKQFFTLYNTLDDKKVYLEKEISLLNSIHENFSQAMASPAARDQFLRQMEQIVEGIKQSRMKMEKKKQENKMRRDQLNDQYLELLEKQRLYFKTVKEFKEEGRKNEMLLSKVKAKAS

No constants are given. Whether binding was seen depends on the method and setting. Binding seen in cells or lysates may run through a third protein. Here binding means that the protein was enriched with, or labelled near, the bait; the list need not be complete.

One assay deals with VPS26C (human) (UniProt O14972). The experiment in a line: proximity labelling; BioID–MS: MAC-tagged (BirA*) bait in Flp-In T-REx 293, tetracycline and 50 μM biotin 24 h; lysis with 0.1% SDS and benzonase, Strep-Tactin beads; high-confidence interactions by SAINTexpress and CRAPome.
Another assay concerns the target COMMD9 (human) (UniProt Q9P000). The description is as above.
The target in a further assay is COMMD10 (human) (UniProt Q9Y6G5). The assay is described as above.
A further assay deals with VPS35L (human) (UniProt Q7Z3J2). Described as above.
A further assay addresses COMMD1 (human) (UniProt Q8N668). The description is as above.
For assay [1], the target named is DENN domain-containing protein 10 (human) (UniProt Q8TCE6). Described as above.
The target of another assay is COMMD2 (human) (UniProt Q86X83). Described as above.
In another assay the target is COMMD8 (human) (UniProt Q9NX08). The description is as above.
Assay [2] addresses CCDC22 (human) (UniProt O60826). The description is as above.
For a further assay, the target named is CCDC93 (human) (UniProt Q567U6). The experiment in a line: affinity purification with mass spectrometry; MAC-tagged bait stably expressed in Flp-In T-REx 293 (tetracycline 24 h); cleared lysate (50 mM HEPES pH 8.0, 150 mM NaCl, 0.5% IGEPAL) on Strep-Tactin beads, eluted with biotin; high-confidence interactions by SAINTexpress (BFDR < 0.05) and CRAPome against MAC-tagged GFP controls.

Assay [3] addresses DENN domain-containing protein 10 (human) (UniProt Q8TCE6). The description is as above.
For assay [4], the target named is CCDC22 (human) (UniProt O60826). The description is as above.

B1: TPGS1 (protein, UniProt Q6ZTW0 1-290)
chain: MAAVEKRRQAVPPPAGFTDSGRQSVSRAAGAAESEEDFLRQVGVTEMLRAALLKVLEARPEEPIAFLAHYFENMGLRSPVNGGAGEPPGQLLLQQQRLGRALWHLRLAHHSQRAAFNNNVSVAYECLSAGGRRKRPGLDGRTYSELLRRICRDGQAPEEVVAPLLRKVQCRDHEAVPLSVFRAGTLTCFVLLEFVARAGALFQLLEDSAAAVADRRVGQAVLDTLEGALQASDAAAPARFLEAGSRLGPDSLALALDRAVGGRRPSAPMTREEFLERAAALFIAKVKPVG
For B1, the binding entry (in the assay with VPS26C (human); with COMMD9 (human); with COMMD10 (human); in the assay with VPS35L (human); with COMMD1 (human); in [1]) was “binds” throughout. Moreover, in the assay with COMMD2 (human), the binding result is given as “binds”.

B2: LRRC49 (protein, UniProt Q8IUZ0 1-686)
chain: MIPGKYRSVSGRAANNVNCGLHLVIQTSSLPEKNKVEFKLNKDTSSFPGRLLQHDLERNYSSRQGDHINLVSSSLSSFPILQRSSEEKILYSDRLSLERQKLTVCPIINGEDHLRLLNFQHNFITRIQNISNLQKLISLDLYDNQIEEISGLSTLRCLRVLLLGKNRIKKISNLENLKSLDVLDLHGNQITKIENINHLCELRVLNLARNFLSHVDNLNGLDSLTELNLRHNQITFVRDVDNLPCLQHLFLSFNNISSFDSVSCLADSSSLSDITFDGNPIAQESWYKHTVLQNMMQLRQLDMKRITEEERRMASVLAKKEEEKKRESHKQSLLKEKKRLTINNVARQWDLQQQRVANIATNEDRKDSDSPQDPCQIDGSTLSAFPEETGPLDSGLNNALQGLSVIDTYLVEVDGDTLSLYGSGALESLDRNWSVQTAGMITTVSFTFIEFDEIVQVLPKLKIKFPNSLHLKFKETNLVMLQQFNALAQLRRIDQLTIDPQGNPVVNFTLWKYYVLFRLSHFSMQKINGTEVTQNDMIMAERLFGILAHVASSELPQYRLISILGDARKKQFRYLLESKGKKPGIINEENNDSKRLVGENTNRATLNYTTRDFYNEKLEEIKEKKKFCKTYIEDLVKEATEINMKNEALQKLWPQMFIELVRDAVIEIRNKNSYMKLCLQQITDQK
On to B2, for which the binding entry with VPS26C (human), with COMMD9 (human), in the assay with VPS35L (human) and in the assay with COMMD2 (human) was “binds” in each case.

B3: TFDP2 (protein, UniProt Q14188 1-446)
chain: MTAKNVGLTSTNAEVRGFIDQNLSPTKGNISFVAFPVSNTNSPTKILPKTLGPINVNVGPQMIISTPQRLTSSGSVLIGSPYTPAPAMVTQTHIAEATGWVPGDRKRARKFIDSDFSESKRSKKGDKNGKGLRHFSMKVCEKVQRKGTTSYNEVADELVSEFTNSNNHLAADSAYDQKNIRRRVYDALNVLMAMNIISKEKKEIKWIGLPTNSAQECQNLEIEKQRRIERIKQKRAQLQELLLQQIAFKNLVQRNRQNEQQNQGPPALNSTIQLPFIIINTSRKTVIDCSISSDKFEYLFNFDNTFEIHDDIEVLKRMGMSFGLESGKCSLEDLKLAKSLVPKALEGYITDISTGPSWLNQGLLLNSTQSVSNLDLTTGATLPQSSVNQGLCLDAEVALATGQFLAPNSHQSSSAASHCSESRGETPCSFNDEDEEDDEEDSSSPE
Turning to B3, in the assay with COMMD1 (human), the binding result is “binds”.

B4: adaptor protein AP4E1 (protein, UniProt Q9UPM8 1-1137)
chain: MSDIVEKTLTALPGLFLQNQPGGGPAAAKASFSSRLGSLVRGITALTSKHEEEKLIQQELSSLKATVSAPTTTLKMMKECMVRLIYCEMLGYDASFGYIHAIKLAQQGNLLEKRVGYLAVSLFLHESHELLLLLVNTVVKDLQSTNLVEVCMALTVVSQIFPCEMIPAVLPLIEDKLQHSKEIVRRKAVLALYKFHLIAPNQVQHIHIKFRKALCDRDVGVMAASLHIYLRMIKENSSGYKDLTGSFVTILKQVVGGKLPVEFNYHSVPAPWLQIQLLRILGLLGKDDQRTSELMYDVLDESLRRAELNHNVTYAILFECVHTVYSIYPKSELLEKAAKCIGKFVLSPKINLKYLGLKALTYVIQQDPTLALQHQMTIIECLDHPDPIIKRETLELLYRITNAQNITVIVQKMLEYLHQSKEEYVIVNLVGKIAELAEKYAPDNAWFIQTMNAVFSVGGDVMHPDIPNNFLRLLAEGFDDETEDQQLRLYAVQSYLTLLDMENVFYPQRFLQVMSWVLGEYSYLLDKETPEEVIAKLYKLLMNDSVSSETKAWLIAAVTKLTSQAHSSNTVERLIHEFTISLDTCMRQHAFELKHLHENVELMKSLLPVDRSCEDLVVDASLSFLDGFVAEGLSQGAAPYKPPHQRQEEKLSQEKVLNFEPYGLSFSSSGFTGRQSPAGISLGSDVSGNSAETGLKETNSLKLEGIKKLWGKEGYLPKKESKTGDESGALPVPQESIMENVDQAITKKDQSQVLTQSKEEKEKQLLASSLFVGLGSESTINLLGKADTVSHKFRRKSKVKEAKSGETTSTHNMTCSSFSSLSNVAYEDDYYSNTLHDTGDKELKKFSLTSELLDSESLTELPLVEKFSYCSLSTPSLFANNNMEIFHPPQSTAASVAKESSLASSFLEETTEYIHSNAMEVCNNETISVSSYKIWKDDCLLMVWSVTNKSGLELKSADLEIFPAENFKVTEQPGCCLPVMEAESTKSFQYSVQIEKPFTEGNLTGFISYHMMDTHSAQLEFSVNLSLLDFIRPLKISSDDFGKLWLSFANDVKQNVKMSESQAALPSALKTLQQKLRLHIIEIIGNEGLLACQLLPSIPCLLHCRVHADVLALWFRSSCSTLPDYLLYQCQKVMEGS
As to B4, the binding entry with COMMD8 (human) and with CCDC22 (human) [2] was “binds” each time.

B5: membrane-bound NF-kB regulator TRIM13 (protein, UniProt O60858 1-407)
chain: MELLEEDLTCPICCSLFDDPRVLPCSHNFCKKCLEGILEGSVRNSLWRPAPFKCPTCRKETSATGINSLQVNYSLKGIVEKYNKIKISPKMPVCKGHLGQPLNIFCLTDMQLICGICATRGEHTKHVFCSIEDAYAQERDAFESLFQSFETWRRGDALSRLDTLETSKRKSLQLLTKDSDKVKEFFEKLQHTLDQKKNEILSDFETMKLAVMQAYDPEINKLNTILQEQRMAFNIAEAFKDVSEPIVFLQQMQEFREKIKVIKETPLPPSNLPASPLMKNFDTSQWEDIKLVDVDKLSLPQDTGTFISKIPWSFYKLFLLILLLGLVIVFGPTMFLEWSLFDDLATWKGCLSNFSSYLTKTADFIEQSVFYWEQVTDGFFIFNERFKNFTLVVLNNVAEFVCKYKLL
Take B5: the binding result with COMMD10 (human) is listed as “binds”.

B6: FKBP5 (protein, UniProt Q13451 1-457)
chain: MTTDEGAKNNEESPTATVAEQGEDITSKKDRGVLKIVKRVGNGEETPMIGDKVYVHYKGKLSNGKKFDSSHDRNEPFVFSLGKGQVIKAWDIGVATMKKGEICHLLCKPEYAYGSAGSLPKIPSNATLFFEIELLDFKGEDLFEDGGIIRRTKRKGEGYSNPNEGATVEIHLEGRCGGRMFDCRDVAFTVGEGEDHDIPIGIDKALEKMQREEQCILYLGPRYGFGEAGKPKFGIEPNAELIYEVTLKSFEKAKESWEMDTKEKLEQAAIVKEKGTVYFKGGKYMQAVIQYGKIVSWLEMEYGLSEKESKASESFLLAAFLNLAMCYLKLREYTKAVECCDKALGLDSANEKGLYRRGEAQLLMNEFESAKGDFEKVLEVNPQNKAARLQISMCQKKAKEHNERDRRIYANMFKKFAEQDAKEEANKAMGKKTSEGVTNEKGTDSQAMEEEKPEGHV
Turning to B6, the binding result (in the assay with CCDC93 (human); in assay [3]) was “binds” each time.

B7: WASHC1 homolog WASH6P (protein, UniProt Q9NQA3 1-447)
chain: MAFHEMQAHKNALGTSGEQQAADITGPTPHQGGWKQVEQSRSQVQAIGEKVSLAQAKIEKIKGSKKAIKVFSSAKYPAPERLQEYGSIFTGAQDPGLQRRPRHRIQSKHRPLDERALQEKLKDFPVCVSTKPEPEDDAEEGLGGLPSNISSVSSLLLFNTTENLYKKYVFLDPLAGAVTKTHVMLGAETEEKLFDAPLSISKREQLEQQVPENYFYVPDLGQVPEIDVPSYLPDLPSIANDLMYSADLGPGIAPSAPGTIPELPTFHTEVAEPLKADLQDGVLTPPPPPPPPPPAPEVLASAPPLPPSTAAPVGQGARQDDGSSSASPSVQGAPREVVDPSGGWATLLESIRQAGGIGKAKLRSMKERKLEKKKQKEQEQVRATSQGGHLMSDLFNKLVMRRKGISGKGPGAGEGPGGAFARVSDSIPPVPPPQQPQAEEDEDDWES
As for B7, the binding entry (in the assay with CCDC93 (human); in assay [3]; with CCDC22 (human) [4]) was “binds” in each case.
